Paper PMC12525728, “Safety, Pharmacokinetics, Translational and Molecular Mechanistic Insights on the Prostate Cancer Recurrence Suppressor Pseurotin A” (Molecules, 2025)

System: recurrent CWR-R1ca tumors
Assay: RNA-Seq differential gene expression of recurrent tumors, PsA versus VC
Type: in vivo, athymic male nude mice
Details: PsA 20 mg/kg vs VC recurrent tumors

Structure (SMILES): CC/C=C\[C@H](O)[C@H](O)C1=C(C)C(=O)[C@]2(O1)C(=O)N[C@@](OC)(C(=O)c1ccccc1)[C@@H]2O [PsA, pseurotin A]
- number of significantly downregulated genes (log2FC ≤ −1.5, adjusted p ≤ 0.05, FDR ≤ 0.1): 352
- number of significantly upregulated genes (log2FC ≥ 1.5, adjusted p ≤ 0.05, FDR ≤ 0.1): 486
